Data from the supplement of paper PMC10849652.
This is one part of the list.

Protein sequences, listed by entry. Tags and fused reporters are not part of them. Lines headed by an entry give the natural chain unless they say otherwise; changes in a name come on top.
UniProt P78383: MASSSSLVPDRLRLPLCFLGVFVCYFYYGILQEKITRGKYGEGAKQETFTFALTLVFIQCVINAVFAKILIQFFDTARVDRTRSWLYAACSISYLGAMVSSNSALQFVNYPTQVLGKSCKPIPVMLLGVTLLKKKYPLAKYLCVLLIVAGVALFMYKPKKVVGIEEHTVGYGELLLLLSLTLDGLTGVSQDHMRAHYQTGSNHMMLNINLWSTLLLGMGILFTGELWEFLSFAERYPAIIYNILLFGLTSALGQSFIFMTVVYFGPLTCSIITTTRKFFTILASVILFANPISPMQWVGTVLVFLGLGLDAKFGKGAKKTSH
UniProt P53794: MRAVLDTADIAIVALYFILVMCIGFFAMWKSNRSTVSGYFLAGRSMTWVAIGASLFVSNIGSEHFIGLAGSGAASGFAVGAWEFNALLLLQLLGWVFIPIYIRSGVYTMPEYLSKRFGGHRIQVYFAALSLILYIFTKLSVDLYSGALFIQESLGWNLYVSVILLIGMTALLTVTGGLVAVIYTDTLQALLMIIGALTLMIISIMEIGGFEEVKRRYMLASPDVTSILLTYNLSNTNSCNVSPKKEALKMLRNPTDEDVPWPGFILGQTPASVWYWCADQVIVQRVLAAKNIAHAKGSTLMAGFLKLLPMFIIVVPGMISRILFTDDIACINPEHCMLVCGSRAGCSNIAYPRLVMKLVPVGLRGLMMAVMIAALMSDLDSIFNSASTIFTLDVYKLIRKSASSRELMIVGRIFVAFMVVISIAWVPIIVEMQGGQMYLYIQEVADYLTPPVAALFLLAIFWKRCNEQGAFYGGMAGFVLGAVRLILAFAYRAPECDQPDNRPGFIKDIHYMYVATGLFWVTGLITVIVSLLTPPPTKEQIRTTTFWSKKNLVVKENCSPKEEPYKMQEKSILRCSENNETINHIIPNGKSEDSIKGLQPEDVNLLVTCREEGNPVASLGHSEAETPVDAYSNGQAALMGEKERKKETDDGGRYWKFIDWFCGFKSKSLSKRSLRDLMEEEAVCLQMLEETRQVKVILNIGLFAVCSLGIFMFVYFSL
UniProt Q96BI1: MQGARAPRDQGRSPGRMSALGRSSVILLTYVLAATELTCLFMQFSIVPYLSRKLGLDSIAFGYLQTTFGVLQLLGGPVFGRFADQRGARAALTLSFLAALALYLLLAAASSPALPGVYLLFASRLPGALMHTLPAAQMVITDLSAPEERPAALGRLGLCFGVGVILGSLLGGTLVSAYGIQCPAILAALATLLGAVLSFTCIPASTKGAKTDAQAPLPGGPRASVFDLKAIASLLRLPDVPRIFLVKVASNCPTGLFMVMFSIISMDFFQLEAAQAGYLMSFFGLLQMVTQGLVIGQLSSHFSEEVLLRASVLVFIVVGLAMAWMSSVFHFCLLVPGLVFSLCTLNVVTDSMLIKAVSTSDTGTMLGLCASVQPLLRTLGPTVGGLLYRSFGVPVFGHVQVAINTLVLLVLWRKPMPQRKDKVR
UniProt Q8N1S5: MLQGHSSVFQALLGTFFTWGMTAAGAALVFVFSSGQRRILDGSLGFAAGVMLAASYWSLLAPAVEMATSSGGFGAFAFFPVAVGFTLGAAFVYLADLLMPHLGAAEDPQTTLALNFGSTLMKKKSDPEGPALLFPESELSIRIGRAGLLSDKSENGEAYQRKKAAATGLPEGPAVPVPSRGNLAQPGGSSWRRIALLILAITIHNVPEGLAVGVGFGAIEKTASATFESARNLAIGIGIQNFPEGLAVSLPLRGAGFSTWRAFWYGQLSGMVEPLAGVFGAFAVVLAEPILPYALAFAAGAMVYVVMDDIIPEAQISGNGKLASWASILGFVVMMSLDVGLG
UniProt O75746: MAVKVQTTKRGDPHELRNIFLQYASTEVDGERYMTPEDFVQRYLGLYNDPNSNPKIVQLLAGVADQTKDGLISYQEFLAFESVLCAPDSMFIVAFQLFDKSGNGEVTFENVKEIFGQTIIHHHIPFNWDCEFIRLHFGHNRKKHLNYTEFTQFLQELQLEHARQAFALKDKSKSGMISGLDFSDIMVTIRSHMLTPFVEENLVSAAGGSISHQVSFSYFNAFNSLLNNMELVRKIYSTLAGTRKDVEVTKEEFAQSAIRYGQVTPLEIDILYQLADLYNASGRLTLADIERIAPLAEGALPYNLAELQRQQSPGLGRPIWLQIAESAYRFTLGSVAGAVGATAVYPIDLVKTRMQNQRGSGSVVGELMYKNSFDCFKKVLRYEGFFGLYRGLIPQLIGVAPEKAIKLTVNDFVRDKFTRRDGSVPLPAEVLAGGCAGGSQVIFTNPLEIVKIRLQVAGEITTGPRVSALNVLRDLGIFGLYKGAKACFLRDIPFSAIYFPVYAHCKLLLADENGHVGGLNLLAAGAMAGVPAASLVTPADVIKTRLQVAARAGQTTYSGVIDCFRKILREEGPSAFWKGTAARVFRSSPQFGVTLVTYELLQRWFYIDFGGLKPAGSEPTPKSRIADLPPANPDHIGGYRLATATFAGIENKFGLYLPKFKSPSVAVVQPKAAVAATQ
UniProt Q7Z769: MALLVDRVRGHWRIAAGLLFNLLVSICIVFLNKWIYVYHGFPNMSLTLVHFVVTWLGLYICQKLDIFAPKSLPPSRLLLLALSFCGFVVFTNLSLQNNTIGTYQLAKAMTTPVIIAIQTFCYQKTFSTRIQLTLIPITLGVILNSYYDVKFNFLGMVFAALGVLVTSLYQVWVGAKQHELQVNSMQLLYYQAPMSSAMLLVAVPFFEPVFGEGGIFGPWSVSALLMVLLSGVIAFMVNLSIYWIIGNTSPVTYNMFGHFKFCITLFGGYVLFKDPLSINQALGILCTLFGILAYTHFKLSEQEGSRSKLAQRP
UniProt Q5SVS4: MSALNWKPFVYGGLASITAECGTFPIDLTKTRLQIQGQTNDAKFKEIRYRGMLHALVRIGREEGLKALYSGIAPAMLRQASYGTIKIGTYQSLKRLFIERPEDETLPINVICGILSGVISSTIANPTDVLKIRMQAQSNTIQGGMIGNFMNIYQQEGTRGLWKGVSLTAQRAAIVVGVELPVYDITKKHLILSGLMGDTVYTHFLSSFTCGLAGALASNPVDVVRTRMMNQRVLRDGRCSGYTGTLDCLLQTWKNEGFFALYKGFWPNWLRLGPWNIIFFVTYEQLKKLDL
UniProt Q9Y6M7: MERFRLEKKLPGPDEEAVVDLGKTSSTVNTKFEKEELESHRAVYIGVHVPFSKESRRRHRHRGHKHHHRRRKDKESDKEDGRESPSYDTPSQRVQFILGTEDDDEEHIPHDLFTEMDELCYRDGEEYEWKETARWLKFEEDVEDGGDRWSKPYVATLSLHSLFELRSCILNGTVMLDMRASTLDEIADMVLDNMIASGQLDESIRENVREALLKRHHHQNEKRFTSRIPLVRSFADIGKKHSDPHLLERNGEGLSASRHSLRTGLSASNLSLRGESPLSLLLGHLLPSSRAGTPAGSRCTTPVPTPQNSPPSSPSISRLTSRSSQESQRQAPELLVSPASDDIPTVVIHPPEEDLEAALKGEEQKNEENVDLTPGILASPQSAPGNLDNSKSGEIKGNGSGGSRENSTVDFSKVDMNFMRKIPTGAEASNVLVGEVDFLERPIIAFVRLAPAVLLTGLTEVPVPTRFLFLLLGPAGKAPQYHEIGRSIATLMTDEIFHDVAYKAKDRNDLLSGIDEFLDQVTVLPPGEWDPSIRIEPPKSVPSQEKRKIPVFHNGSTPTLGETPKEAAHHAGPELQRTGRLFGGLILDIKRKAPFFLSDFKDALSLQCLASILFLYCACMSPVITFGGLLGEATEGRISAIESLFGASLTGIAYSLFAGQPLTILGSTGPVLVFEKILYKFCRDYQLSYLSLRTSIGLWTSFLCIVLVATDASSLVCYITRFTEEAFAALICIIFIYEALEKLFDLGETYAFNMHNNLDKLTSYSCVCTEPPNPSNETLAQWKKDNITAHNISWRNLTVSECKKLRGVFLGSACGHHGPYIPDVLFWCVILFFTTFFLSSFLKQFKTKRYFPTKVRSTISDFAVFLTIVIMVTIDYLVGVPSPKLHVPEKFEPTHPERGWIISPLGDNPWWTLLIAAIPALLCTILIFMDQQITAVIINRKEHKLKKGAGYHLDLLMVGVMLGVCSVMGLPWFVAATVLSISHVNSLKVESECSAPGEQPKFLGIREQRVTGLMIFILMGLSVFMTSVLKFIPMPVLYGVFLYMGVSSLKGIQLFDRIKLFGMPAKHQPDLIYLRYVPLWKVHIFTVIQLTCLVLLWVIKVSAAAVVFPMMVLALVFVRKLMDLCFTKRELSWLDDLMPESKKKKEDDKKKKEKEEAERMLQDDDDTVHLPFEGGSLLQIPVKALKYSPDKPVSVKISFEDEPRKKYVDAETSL
UniProt Q8N357: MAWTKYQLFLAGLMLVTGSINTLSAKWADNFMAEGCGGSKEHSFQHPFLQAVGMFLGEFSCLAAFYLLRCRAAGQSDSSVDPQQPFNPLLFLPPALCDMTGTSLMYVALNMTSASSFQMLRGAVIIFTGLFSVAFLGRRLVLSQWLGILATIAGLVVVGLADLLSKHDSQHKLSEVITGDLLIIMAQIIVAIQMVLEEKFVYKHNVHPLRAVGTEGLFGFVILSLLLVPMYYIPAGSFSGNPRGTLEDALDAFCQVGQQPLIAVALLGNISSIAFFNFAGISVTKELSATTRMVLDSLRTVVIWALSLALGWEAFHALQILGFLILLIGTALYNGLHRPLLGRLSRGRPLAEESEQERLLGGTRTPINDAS
UniProt Q9BRY0: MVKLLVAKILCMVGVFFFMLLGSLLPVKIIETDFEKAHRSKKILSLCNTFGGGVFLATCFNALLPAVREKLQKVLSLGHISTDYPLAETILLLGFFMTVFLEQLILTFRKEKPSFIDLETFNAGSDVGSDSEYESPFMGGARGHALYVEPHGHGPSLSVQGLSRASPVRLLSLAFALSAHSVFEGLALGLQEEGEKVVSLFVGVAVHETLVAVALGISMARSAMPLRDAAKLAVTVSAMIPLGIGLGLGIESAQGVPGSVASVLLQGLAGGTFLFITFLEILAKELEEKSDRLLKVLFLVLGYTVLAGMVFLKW
UniProt Q96QD8: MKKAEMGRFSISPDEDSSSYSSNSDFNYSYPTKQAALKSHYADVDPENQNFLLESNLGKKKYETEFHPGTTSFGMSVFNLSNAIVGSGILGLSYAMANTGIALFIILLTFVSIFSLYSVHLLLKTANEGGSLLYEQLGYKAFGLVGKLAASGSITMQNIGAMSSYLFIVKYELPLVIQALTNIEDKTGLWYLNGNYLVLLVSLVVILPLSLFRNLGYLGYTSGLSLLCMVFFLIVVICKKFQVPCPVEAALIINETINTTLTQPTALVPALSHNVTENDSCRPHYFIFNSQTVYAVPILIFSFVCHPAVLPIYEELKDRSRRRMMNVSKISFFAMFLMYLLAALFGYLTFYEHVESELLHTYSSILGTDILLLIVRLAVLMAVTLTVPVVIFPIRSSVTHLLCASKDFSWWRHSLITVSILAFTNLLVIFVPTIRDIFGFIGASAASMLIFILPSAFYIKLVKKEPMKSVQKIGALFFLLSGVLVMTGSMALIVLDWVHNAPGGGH
UniProt P30825: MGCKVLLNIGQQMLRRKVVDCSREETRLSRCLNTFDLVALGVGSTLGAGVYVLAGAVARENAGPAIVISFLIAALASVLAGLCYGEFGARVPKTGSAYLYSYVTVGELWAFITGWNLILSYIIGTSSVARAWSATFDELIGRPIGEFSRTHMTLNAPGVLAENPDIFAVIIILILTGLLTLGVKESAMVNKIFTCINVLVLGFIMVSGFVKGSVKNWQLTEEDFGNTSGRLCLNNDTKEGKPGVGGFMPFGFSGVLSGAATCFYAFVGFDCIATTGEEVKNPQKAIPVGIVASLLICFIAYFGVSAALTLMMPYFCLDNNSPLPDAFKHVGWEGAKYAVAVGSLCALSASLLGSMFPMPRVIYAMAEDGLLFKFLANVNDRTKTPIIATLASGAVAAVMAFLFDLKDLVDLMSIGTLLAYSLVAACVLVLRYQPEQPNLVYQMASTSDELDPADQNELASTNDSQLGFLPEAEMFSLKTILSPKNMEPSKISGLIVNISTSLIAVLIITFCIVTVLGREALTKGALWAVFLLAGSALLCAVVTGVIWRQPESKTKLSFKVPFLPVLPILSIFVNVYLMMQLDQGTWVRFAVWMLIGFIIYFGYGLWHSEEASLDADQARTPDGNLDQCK
UniProt P12236: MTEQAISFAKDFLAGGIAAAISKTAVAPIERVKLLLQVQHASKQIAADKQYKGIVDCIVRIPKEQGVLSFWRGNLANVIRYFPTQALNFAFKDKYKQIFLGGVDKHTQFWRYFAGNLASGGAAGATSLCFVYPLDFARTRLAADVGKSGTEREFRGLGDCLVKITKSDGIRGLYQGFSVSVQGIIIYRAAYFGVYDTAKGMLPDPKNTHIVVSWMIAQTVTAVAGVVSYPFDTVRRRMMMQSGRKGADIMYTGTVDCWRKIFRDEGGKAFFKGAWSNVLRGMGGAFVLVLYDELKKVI

Key:
Assay in all cases: log2 fold change, soluble protein after heating vs DMSO (PISA); higher = thermal stabilisation; K562 cells, 10 uM, 30 min; active = over 0.2 and 3.5 SD of the protein, either way, in both replicates (recomputed)
[1] = compound: NC(=O)Nc1cc(-c2cccc(F)c2)sc1C(=O)N[C@H]1CCCNC1
How it was run: (§1)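 Thermal stability values are relative to control samples and come from duplicates. They are expressed as log2 fold changes. For measurement, K562 cells (2×10^6 cells/mL) received 10 μM compound for 30 min, and aliquots were heated for 3 min over 48°C-58°C, pooled, and extracted at 4°C in PBS with 0.5% NP-40. Soluble protein, the supernatant after 21,000xg for 90 min, was quantified by TMTpro 16plex LC-MS/MS with equalised channel sums.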

[2] = compound: NC(=O)c1cnc(N[C@@H]2CCCC[C@@H]2N)nc1Nc1cccc(-n2nccn2)c1
How it was run: as §1

[3] = compound: NC1(c2ccc(-c3nc4ccn5c(=O)[nH]nc5c4cc3-c3ccccc3)cc2)CCC1
How it was run: as §1

[4] = compound: NCC(=O)Nc1ccc(-n2nc(C(F)(F)F)cc2-c2ccc3c(ccc4ccccc43)c2)cc1
How it was run: as §1

entinostat = compound: Nc1ccccc1NC(=O)c1ccc(CNC(=O)OCc2cccnc2)cc1 [entinostat]
How it was run: as §1

vorinostat = compound: O=C(CCCCCCC(=O)Nc1ccccc1)NO [vorinostat]
How it was run: as §1

citarinostat = compound: O=C(CCCCCCNC(=O)c1cnc(N(c2ccccc2)c2ccccc2Cl)nc1)NO [citarinostat]
How it was run: as §1

silmitasertib = compound: O=C(O)c1ccc2c(c1)nc(Nc1cccc(Cl)c1)c1ccncc12 [silmitasertib]
How it was run: as §1

[5] = compound: O=C1NC(=O)C(c2cnc3ccccn23)=C1c1cn2c3c(cc(F)cc13)CN(C(=O)N1CCCCC1)CC2
How it was run: as §1

[6] = compound: c1cc(OCCN2CCCCC2)cc(-c2n[nH]c3ccc(-c4nnc[nH]4)cc23)c1
How it was run: as §1

entospletinib = compound: c1cn2cc(-c3ccc4cn[nH]c4c3)nc(Nc3ccc(N4CCOCC4)cc3)c2n1 [entospletinib]
How it was run: as §1

For SLC30A6 isoform 2 (UniProt Q6NXT4), the log2 fold change [1] was inactive: -0.008, the log2 fold change [2] was inactive: -0.052 and the log2 fold change [3] was inactive: -0.141. For the same target, the log2 fold change [4] was inactive: -0.159, the log2 fold change (entinostat) was inactive: 0.062 and the log2 fold change (vorinostat) was inactive: 0.14. For the same target, the log2 fold change (citarinostat) was inactive: 0.012, the log2 fold change (silmitasertib) was inactive: -0.027 and the log2 fold change [5] was inactive: -0.013. For the same target, the log2 fold change [6] was inactive: -0.011 and the log2 fold change (entospletinib) was inactive: -0.046.

For SLC35B3 (UniProt Q9H1N7), the log2 fold change [1] was inactive: 0.005, the log2 fold change [2] was inactive: -0.043 and the log2 fold change [3] was inactive: 0.134. For the same target, the log2 fold change [4] was inactive: 0.006, the log2 fold change (entinostat) was inactive: -0.024 and the log2 fold change (citarinostat) was inactive: 0. The log2 fold change (silmitasertib) was inactive: 0.174, the log2 fold change [5] was inactive: -0.049 and the log2 fold change [6] was inactive: -0.046. For the same target, the log2 fold change (entospletinib) was inactive: 0.073.

In the case of SLC35B1 isoform 2 (UniProt P78383), the log2 fold change [1] is reported as inactive: -0.054, the log2 fold change [3] is reported as inactive: -0.029 and the log2 fold change [4] is reported as inactive: -0.057. For the same target, the log2 fold change (entinostat) was inactive: 0.041, the log2 fold change (citarinostat) was inactive: -0.052 and the log2 fold change (silmitasertib) was inactive: 0.261. The log2 fold change [5] was inactive: 0.138 and the log2 fold change [6] was inactive: -0.327.

With SLC5A3 (UniProt P53794) the log2 fold change [1] was inactive: -0.061, the log2 fold change [2] was inactive: 0.088 and the log2 fold change [3] was inactive: 0.027. The log2 fold change [4] was inactive: 0.04, the log2 fold change (entinostat) was inactive: -0.028 and the log2 fold change (vorinostat) was inactive: -0.09. The log2 fold change (citarinostat) was inactive: 0.013, the log2 fold change (silmitasertib) was inactive: 0.026 and the log2 fold change [5] was inactive: 0.013. For the same target, the log2 fold change [6] was inactive: 0.002 and the log2 fold change (entospletinib) was inactive: 0.031.

For SLC22A18 (UniProt Q96BI1), the log2 fold change [1] was inactive: -0.026, the log2 fold change [3] was inactive: 0.021 and the log2 fold change [4] was inactive: -0.183. For the same target, the log2 fold change (entinostat) was inactive: -0.044, the log2 fold change (vorinostat) was inactive: -0.073 and the log2 fold change (citarinostat) was inactive: -0.056. For the same target, the log2 fold change (silmitasertib) was inactive: -0.001, the log2 fold change [5] was inactive: 0.02 and the log2 fold change [6] was inactive: -0.05. For the same target, the log2 fold change (entospletinib) was inactive: 0.066.

In the case of SLC39A11 (UniProt Q8N1S5), the log2 fold change [1] is reported as inactive: 0, the log2 fold change [2] is reported as inactive: -0.027 and the log2 fold change [3] is reported as inactive: -0.085. The log2 fold change [4] was inactive: 0.024, the log2 fold change (entinostat) was inactive: -0.016 and the log2 fold change (vorinostat) was inactive: -0.063. The log2 fold change (citarinostat) was inactive: -0.059, the log2 fold change (silmitasertib) was inactive: 0.078 and the log2 fold change [6] was inactive: -0.122. For the same target, the log2 fold change (entospletinib) was active: -0.458.

SLC25A12 (UniProt O75746) was tested, and the log2 fold change [1] was inactive: -0.023, the log2 fold change [2] was inactive: 0 and the log2 fold change [3] was inactive: 0.001. The log2 fold change [4] was inactive: -0.022, the log2 fold change (entinostat) was inactive: -0.012 and the log2 fold change (vorinostat) was inactive: -0.008. For the same target, the log2 fold change (citarinostat) was inactive: -0.011, the log2 fold change (silmitasertib) was inactive: 0.005 and the log2 fold change [5] was inactive: -0.013. For the same target, the log2 fold change [6] was inactive: 0.037 and the log2 fold change (entospletinib) was inactive: -0.03.

SLC35E3 (UniProt Q7Z769) was tested, and the log2 fold change [1] was inactive: -0.184, the log2 fold change [2] was inactive: 0.027 and the log2 fold change (entinostat) was inactive: 0.153. For the same target, the log2 fold change [5] was inactive: 0.011.

With SLC25A30 (UniProt Q5SVS4) the log2 fold change [1] was inactive: 0.055, the log2 fold change [2] was inactive: 0.039 and the log2 fold change [4] was inactive: 0.027. The log2 fold change (entinostat) was inactive: 0.043, the log2 fold change (vorinostat) was inactive: -0.11 and the log2 fold change (citarinostat) was inactive: -0.01. For the same target, the log2 fold change [6] was inactive: -0.004 and the log2 fold change (entospletinib) was inactive: 0.146.

With SLC2A4 (UniProt P14672) the log2 fold change [1] was inactive: -0.005, the log2 fold change [2] was inactive: 0.019 and the log2 fold change [3] was inactive: 0.05. The log2 fold change (entinostat) was inactive: -0.094, the log2 fold change (vorinostat) was inactive: 0.013 and the log2 fold change (citarinostat) was inactive: 0.078. For the same target, the log2 fold change (silmitasertib) was inactive: 0.051, the log2 fold change [6] was inactive: -0.036 and the log2 fold change (entospletinib) was inactive: 0.02.

In the case of SLC4A7 isoform 7 (UniProt Q9Y6M7), the log2 fold change [1] is reported as inactive: 0.026, the log2 fold change [2] is reported as inactive: 0.052 and the log2 fold change [3] is reported as inactive: 0.213. The log2 fold change [4] was inactive: 0.115, the log2 fold change (entinostat) was inactive: -0.011 and the log2 fold change (citarinostat) was inactive: -0.033. For the same target, the log2 fold change (silmitasertib) was inactive: -0.026, the log2 fold change [5] was inactive: 0.026 and the log2 fold change [6] was inactive: -0.024. For the same target, the log2 fold change (entospletinib) was inactive: 0.038.

For SLC35F6 (UniProt Q8N357), the log2 fold change [1] was inactive: -0.068, the log2 fold change [2] was inactive: 0.045 and the log2 fold change [3] was inactive: -0.161. The log2 fold change [4] was inactive: 0.005, the log2 fold change (entinostat) was inactive: -0.185 and the log2 fold change (citarinostat) was inactive: -0.026. The log2 fold change (silmitasertib) was inactive: 0.023, the log2 fold change [5] was inactive: 0.074 and the log2 fold change [6] was inactive: 0.025.

In the case of SLC39A3 (UniProt Q9BRY0), the log2 fold change [1] is reported as inactive: -0.06, the log2 fold change [2] is reported as inactive: -0.007 and the log2 fold change [3] is reported as inactive: -0.121. For the same target, the log2 fold change [4] was inactive: -0.056, the log2 fold change (entinostat) was inactive: -0.019 and the log2 fold change (vorinostat) was inactive: -0.061. For the same target, the log2 fold change (citarinostat) was inactive: 0.046, the log2 fold change (silmitasertib) was inactive: 0.068 and the log2 fold change [5] was inactive: 0.001. For the same target, the log2 fold change [6] was inactive: -0.113 and the log2 fold change (entospletinib) was inactive: -0.047.

With SLC38A2 (UniProt Q96QD8) the log2 fold change [1] was inactive: -0.023, the log2 fold change [2] was inactive: -0.046 and the log2 fold change [3] was inactive: -0.037. The log2 fold change [4] was inactive: -0.12, the log2 fold change (entinostat) was inactive: 0.018 and the log2 fold change (citarinostat) was inactive: 0.025. For the same target, the log2 fold change (silmitasertib) was inactive: 0.054, the log2 fold change [5] was inactive: 0.014 and the log2 fold change [6] was inactive: -0.088.

For SLC35E2B (UniProt P0CK96), the log2 fold change [1] was inactive: -0.067, the log2 fold change [3] was inactive: -0.074 and the log2 fold change [4] was inactive: 0.083. The log2 fold change (entinostat) was inactive: 0.254 and the log2 fold change (silmitasertib) was inactive: 0.06.

With SLC7A1 (UniProt P30825) the log2 fold change [1] was inactive: -0.092, the log2 fold change [2] was inactive: 0.039 and the log2 fold change [3] was inactive: -0.049. For the same target, the log2 fold change [4] was inactive: -0.058, the log2 fold change (entinostat) was inactive: -0.039 and the log2 fold change (vorinostat) was inactive: -0.037. The log2 fold change (citarinostat) was inactive: -0.036, the log2 fold change (silmitasertib) was inactive: 0.015 and the log2 fold change [5] was inactive: -0.001. For the same target, the log2 fold change [6] was inactive: -0.085 and the log2 fold change (entospletinib) was inactive: -0.045.

In the case of SLC25A6 (UniProt P12236), the log2 fold change [1] is reported as inactive: -0.004, the log2 fold change [2] is reported as inactive: -0.025 and the log2 fold change [3] is reported as inactive: 0.016. The log2 fold change [4] was inactive: -0.006, the log2 fold change (entinostat) was inactive: -0.017 and the log2 fold change (vorinostat) was inactive: -0.004. The log2 fold change (citarinostat) was inactive: 0.011, the log2 fold change (silmitasertib) was inactive: 0.005 and the log2 fold change [5] was inactive: -0.021. The log2 fold change [6] was inactive: -0.036 and the log2 fold change (entospletinib) was inactive: -0.002.

SLC17A5 (UniProt Q9NRA2) was tested, and the log2 fold change [1] was inactive: 0.08, the log2 fold change [2] was inactive: -0.013 and the log2 fold change (entinostat) was inactive: 0.008. For the same target, the log2 fold change (citarinostat) was inactive: -0.044, the log2 fold change [6] was inactive: -0.063 and the log2 fold change (entospletinib) was inactive: -0.031.

With SLC35A3 isoform 2 (UniProt Q9Y2D2) the log2 fold change [1] was inactive: -0.07, the log2 fold change [2] was inactive: -0.09 and the log2 fold change [3] was inactive: 0.041. For the same target, the log2 fold change (entinostat) was inactive: -0.011, the log2 fold change (vorinostat) was inactive: -0.115 and the log2 fold change (citarinostat) was inactive: -0.075. For the same target, the log2 fold change (silmitasertib) was inactive: -0.082, the log2 fold change [5] was inactive: -0.081 and the log2 fold change [6] was inactive: -0.049. For the same target, the log2 fold change (entospletinib) was inactive: 0.026.
